Measured values reported in PubChem BioAssay AID2549 (National Center for Advancing Translational Sciences (NCATS), 2010).
The campaign covered roughly 240,000 compounds. About 1,300 (0.54%) were called active. This list was built around the results that the source calls inconclusive (neither active nor inactive); the mix of calls is not that of the screen. The call rests on the fitted dose curve; in most records, active means well fitted inhibition curve with a large enough effect; inconclusive means small, poorly fitted or top-dose-only effect; inactive means flat fitted curve, though single readings scatter. Potencies of inconclusive entries are doubtful fits and often do not repeat.

Protein sequences, listed by entry. Tags and fused reporters are not part of them. Lines headed by an entry give the natural chain unless they say otherwise; changes in a name come on top.
UniProt P46063: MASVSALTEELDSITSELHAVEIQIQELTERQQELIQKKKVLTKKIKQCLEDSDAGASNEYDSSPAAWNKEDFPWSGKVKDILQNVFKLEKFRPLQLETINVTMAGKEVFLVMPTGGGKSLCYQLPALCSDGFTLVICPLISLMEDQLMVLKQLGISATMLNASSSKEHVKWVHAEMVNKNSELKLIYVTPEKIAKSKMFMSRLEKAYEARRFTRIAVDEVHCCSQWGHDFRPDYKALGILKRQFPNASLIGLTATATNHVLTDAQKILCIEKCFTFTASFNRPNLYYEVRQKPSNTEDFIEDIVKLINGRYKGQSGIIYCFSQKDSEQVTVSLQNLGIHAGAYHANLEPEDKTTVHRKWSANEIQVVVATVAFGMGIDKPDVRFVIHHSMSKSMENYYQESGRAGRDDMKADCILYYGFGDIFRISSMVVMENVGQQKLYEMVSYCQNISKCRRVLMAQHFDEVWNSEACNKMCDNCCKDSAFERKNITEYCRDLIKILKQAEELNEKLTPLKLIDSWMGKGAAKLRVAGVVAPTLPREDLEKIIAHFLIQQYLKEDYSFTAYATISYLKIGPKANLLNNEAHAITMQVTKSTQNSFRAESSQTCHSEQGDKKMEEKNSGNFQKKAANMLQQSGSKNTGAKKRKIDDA

The compounds below were run against ATP-dependent DNA helicase Q1 (Homo sapiens) (UniProt P46063) (assay: qHTS Assay for Inhibitors of RecQ-Like Dna Helicase 1 (RECQ1)). Details: RECQ1 DNA unwinding, red fluorescence kinetic read; activity, negative = inhibition: at 57.3 µM (top of the series); series mostly up to 57.3 µM.
Outline: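 50 nM RECQ1T1 preincubated 15 min with compound in Tris pH 8.0 buffer with MgCl2, DTT, Tween-20 and 2.5 ug/ml poly(dI-dC); started with 200 nM TAMRA/BHQ-2 forked duplex and 2 mM ATP. Unwinding read as fluorescence (525/598 nm), two reads 2 h apart.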
Further: nearly all actives have a fitted effect of over 30% in size.
Potency means the concentration at half of the fitted maximal effect.
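Wherever activity, negative = inhibition is given: plate controls were vehicle for no effect and no enzyme for full effect.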

Row | Structure (SMILES) | Potency | activity, negative = inhibition | outcome
1 | Cc1ccc(-c2cc(C(=O)NCc3ccco3)c3ccccc3n2)o1 | inconclusive: 39.8 µM [inhibitor, single point] |  | 
2 | N#C/C(=C/c1ccc(-c2ccc(S(N)(=O)=O)cc2)o1)c1nc2ccccc2s1 | inconclusive: 20 µM [inhibitor, partial curve, poor fit] |  | 
3 | CC(=O)n1cc([C@H]2C=C(C(=O)NCc3ccccc3)O[C@@H](OCCCCO)C2)c2ccccc21 |  | inactive: 5.88% | 
4 | CCn1cc(C(=O)N2CCN(c3ccc([N+](=O)[O-])cc3)CC2)c(=O)c2ccc(C)nc21 |  | inactive: -0.594% | 
5 | Nc1cc2nc3ccccc3oc-2cc1=O | inconclusive: 39.8 µM [inhibitor, single point] |  | 
6 | CNC(=O)[C@]1(C(F)(F)F)C[C@H](CCC2CCCCC2)CCCO1 |  |  | inactive
7 | c1ccc(Cn2nnc3c(N4CCCCCC4)ncnc32)cc1 | inconclusive: 20 µM [inhibitor, partial curve, poor fit] |  | 
8 | CCN1CCN(C(=S)NC(=O)/C=C/c2cccs2)CC1 | inconclusive: 39.8 µM [inhibitor, single point] |  | 
9 | c1coc(-c2nc3ccccc3nc2-c2ccco2)c1 | inconclusive: 39.8 µM [inhibitor, single point] |  | 
10 | O=C1OCc2cc(-n3cccc3)ccc21 | inconclusive: 0.251 µM [inhibitor, full curve] |  | 
11 | O=C(N/N=C/c1ccccc1OC(=O)c1ccc2c(c1)OCO2)c1cccc(F)c1 | inconclusive: 6.31 µM [inhibitor, full curve] |  | 
12 | O=C(Nc1ccccc1)C1=C[C@@H](C2CCCCC2)C[C@@H](OCCCCO)O1 | inconclusive: 17.8 µM [inhibitor, partial curve] |  | 
13 | CN(c1ccc(C(=O)N2CCN(Cc3ccc4c(c3)OCO4)CC2)cc1)S(=O)(=O)c1ccccc1 | inconclusive: 0.141 µM [inhibitor, partial curve, poor fit] |  | 
14 | Nc1ccc(CCS(N)(=O)=O)cc1 | inconclusive: 0.631 µM [inhibitor, full curve, poor fit] |  | 
15 | O=C(O)c1cc(-c2ccco2)nn1-c1ccc(Cl)cc1 | active: 22.4 µM |  | 
16 | CCCOC(=O)CSC1=C(C#N)C(c2ccccc2Cl)CC(=O)N1 (stereo not drawn) | inconclusive: 15.8 µM [inhibitor, partial curve, poor fit] |  | 
17 | COc1ccc(C(NC(=O)C(C)C)c2ccc3cccnc3c2O)cc1 (stereo not drawn) |  | inactive: -6.66% | 
18 | CC[C@H](C)[C@H](NC(=O)CNC(=O)[C@H](CCCNC(=N)N)NC(=O)CNC(=O)[C@@H](NC(=O)[C@H](Cc1ccc(O)cc1)NC(=O)[C@H](Cc1c[nH]c2ccccc12)NC(=O)[C@H](C)NC(=O)[C@@H]1CCCN1C(=O)[C@H](CC(N)=O)NC(=O)[C@@H](NC(=O)[C@H](CC(=O)O)NC(=O)[C@@H]1CCCN1C(=O)[C@@H](N)[C@@H](C)O)[C@@H](C)CC)[C@@H](C)O)C(=O)N[C@@H](CCCNC(=N)N)C(=O)N1CCC[C@H]1C(=O)N[C@H](C(=O)NCC(=O)N[C@@H](CCCNC(=N)N)C(=O)N[C@@H](Cc1ccccc1)C(N)=O)C(C)C |  | inactive: 11.4% | 
19 | CCCc1nc2c(=O)n(C)c(=O)nc-2n(C)n1 | inconclusive: 39.8 µM [inhibitor, single point] |  | 
20 | Cc1ccc(S(=O)(=O)N(C)C)cc1NC(=S)NC(C)CCC(C)C (stereo not drawn) | inconclusive: 25.1 µM [inhibitor, partial curve] |  | 
21 | Cc1cc(C)n2nc(CCc3nc4nc(C)cc(C)n4n3)nc2n1 | inconclusive: 0.178 µM [inhibitor, full curve, poor fit] |  | 
22 | CN(C)c1ccc(-c2nccc(Nc3ccc(F)cc3)n2)cc1 |  | inactive: -13.2% | 

Row | Structure (SMILES) | Potency | activity, negative = inhibition | outcome
23 | CN1/C(=C\P(=O)(N(C)C)N(C)C)C(C)(C)c2ccccc21 | inconclusive: 31.6 µM [inhibitor, single point] |  | 
24 | O=C(/C=C/c1ccc([N+](=O)[O-])cc1)NCCc1ccccc1 |  | inactive: 2.03% | 
25 | C[C@H]1Cc2c(COc3ccccc3)nc3c(c2CO1)CN(C(=O)C1CCCCC1)CC3 |  |  | inactive [at 11.5 µM]
26 | Oc1ccc(C=Nc2cccc3ncccc23)c(O)c1 |  | inactive: -5.89% | 
27 | O=C1CN(/N=C\c2ccc([N+](=O)[O-])o2)C(=O)N1 |  |  | inactive [at 25.9 µM]
28 | O=C(N/N=C/c1cc2ccccc2nc1Cl)/C(=C/c1cccs1)NC(=O)c1ccccc1 | active: 25.1 µM |  | 
29 | CC12CCC3C(CC3(C)C)C(C)(CCC1=O)O2 (stereo not drawn) |  |  | inactive
30 | CCOc1cccc(=O)c2c(C)n(C)c(C)c12 | inconclusive: 39.8 µM [inhibitor, single point] |  | 
31 | Cc1ccc(-n2nc3c(c2NC(=O)c2cccs2)CSC3)cc1 |  | inactive: -3.98% | 
32 | CN(C)c1ccc2c(-c3ccccc3)c3ccc(=[N+](C)C)cc-3oc2c1 | active: 28.2 µM |  | 
33 | C#CCOC(=O)C(NC(=O)c1ccccc1)=C1CCCCC1 | inconclusive: 0.158 µM [inhibitor, full curve, poor fit] |  | 
34 | CCOC(=O)CC(=O)CSc1nc2c(cc1C#N)CCCCC2 | inconclusive: 2.82 µM [inhibitor, partial curve] |  | 
35 | C/C(CCc1ccc2c(c1)OCO2)=N\NC(=O)c1ccccc1 |  |  | inactive
36 | Cc1cc(S(=O)(=O)n2cnc3cc([N+](=O)[O-])ccc32)ccc1Cl |  | inactive: -10.9% | 
37 | O=C(NN1C(=O)CSC1=S)C(=O)NN1C(=O)CSC1=S | active: 10 µM |  | 
38 | CS(=O)(=O)c1nc(-c2ccc(F)cc2)cc(C(F)(F)F)n1 |  |  | inactive
39 | CS[C@@H]1SC[C@H]2C(=O)N(C)C(C(C)C)C(=O)OC[C@@H](NC(=O)c3cnc4ccccc4n3)C(=O)N[C@@H](C)C(=O)N(C)[C@H]1C(=O)N(C)C(C(C)C)C(=O)OC[C@@H](NC(=O)c1cnc3ccccc3n1)C(=O)N[C@@H](C)C(=O)N2C (stereo partly drawn) | active: 10 µM |  | 
40 | COC(=O)c1cccc(C(=O)Oc2cccc(Br)c2)n1 | active: 14.1 µM |  | 
41 | Cc1c(Cl)c(C(F)(F)F)nn1CC(=O)NN | inconclusive: 10 µM [inhibitor, partial curve] |  | 
42 | Nc1ccc(-c2nc3ccc(C(=O)O)cc3s2)cc1 | inconclusive: 39.8 µM [inhibitor, single point] |  | 
43 | CC1CCc2c(sc(NC(=O)c3ccc(Cn4cc([N+](=O)[O-])cn4)o3)c2C#N)C1 (stereo not drawn) | inconclusive: 35.5 µM [inhibitor, single point] |  | 

Some of these compounds in order of number of heavy atoms, rising:
Row | Structure (SMILES) | Potency | activity, negative = inhibition | outcome
27 | O=C1CN(/N=C\c2ccc([N+](=O)[O-])o2)C(=O)N1 |  |  | inactive [at 25.9 µM]
23 | CN1/C(=C\P(=O)(N(C)C)N(C)C)C(C)(C)c2ccccc21 | inconclusive: 31.6 µM [inhibitor, single point] |  | 
34 | CCOC(=O)CC(=O)CSc1nc2c(cc1C#N)CCCCC2 | inconclusive: 2.82 µM [inhibitor, partial curve] |  | 
